# Measurements: the supplement of paper PMC8728848
# The other results are listed elsewhere or left out.
# Legend:
# Test in all cases: glycan array binding signal (z-score within array); higher = stronger binding
# Settings in all cases: glycan notation: IUPAC condensed, linker removed
# [1] = target: Neu5Ac(a2-6)Gal(b1-4)GlcNAc6S
# Outline: (§1)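 Negative Z-scores can be read as non-binding. The Z-score is calculated within each array and then averaged across arrays of one protein sequence at different concentrations or buffers and across linkers. Arrays, 3228 in all, were curated from the Consortium for Functional Glycomics database and kept only where the protein sequence was available.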
# Neu5Ac(a2-6)GalNAc = target: Neu5Ac(a2-6)GalNAc
# Outline: as §1
# [2] = target: Neu5Ac(a2-6)GalNAc(b1-4)GlcNAc
# Outline: as §1
# [3] = target: Neu5Ac(a2-6)GlcNAc(b1-4)GlcNAc
# Outline: as §1
# [4] = target: Neu5Ac(a2-6)GlcNAc(b1-4)GlcNAc(b1-4)GlcNAc
# Outline: as §1
# Neu5Ac(a2-8)Neu5Ac = target: Neu5Ac(a2-8)Neu5Ac
# Outline: as §1
# [5] = target: Neu5Ac(a2-8)Neu5Ac(a2-3)Gal(b1-4)Glc
# Outline: as §1
# [6] = target: Neu5Ac(a2-8)Neu5Ac(a2-3)[GalNAc(b1-4)]Gal(b1-4)Glc
# Outline: as §1
# [7] = target: Neu5Ac(a2-8)Neu5Ac(a2-8)Neu5Ac
# Outline: as §1
# [8] = target: Neu5Ac(a2-8)Neu5Ac(a2-8)Neu5Ac(a2-3)Gal(b1-4)Glc
# Outline: as §1
# [9] = target: Neu5Ac(a2-8)Neu5Ac(a2-8)Neu5Ac(a2-3)[GalNAc(b1-4)]Gal(b1-4)Glc
# Outline: as §1
# [10] = target: Neu5Ac(a2-8)Neu5Ac(a2-8)Neu5Ac(a2-8)Neu5Ac(a2-3)[GalNAc(b1-4)]Gal(b1-4)Glc
# Outline: as §1
# [11] = target: Neu5Ac(b2-6)Gal(b1-4)GlcNAc
# Outline: as §1
# Neu5Ac(b2-6)GalNAc = target: Neu5Ac(b2-6)GalNAc
# Outline: as §1
# [12] = target: Neu5Ac9Ac(a2-3)Gal(b1-3)GlcNAc
# Outline: as §1
# [13] = target: Neu5Ac9Ac(a2-3)Gal(b1-4)GlcNAc
# Outline: as §1
# [14] = target: Neu5Ac9Ac(a2-6)Gal(b1-4)GlcNAc
# Outline: as §1
# [15] = target: Neu5Gc(a2-3)Gal(b1-3)GlcNAc
# Outline: as §1
# [16] = target: Neu5Gc(a2-3)Gal(b1-3)[Fuc(a1-4)]GlcNAc
# Outline: as §1
# Neu5Gc(a2-3)Gal(b1-4)Glc = target: Neu5Gc(a2-3)Gal(b1-4)Glc
# Outline: as §1
# [17] = target: Neu5Gc(a2-3)Gal(b1-4)GlcNAc
# Outline: as §1
# [18] = target: Neu5Gc(a2-3)Gal(b1-4)[Fuc(a1-3)]GlcNAc
# Outline: as §1
# [19] = target: Neu5Gc(a2-6)Gal(b1-4)GlcNAc
# Outline: as §1
# Neu5Gc(a2-6)GalNAc = target: Neu5Gc(a2-6)GalNAc
# Outline: as §1
# [20] = target: Neu5Gc(b2-6)Gal(b1-4)GlcNAc
# Outline: as §1
binder,measurement,setting,value
"SRS6 (Toxoplasma gondii), Q9NH12 (protein) MARTGSMQQRRGGFQTTARMLMAVCVSGVLLLSSGPSSANKLTEGQQNQNSGPGAATQEGPTIEGAVAKCVLKTTAAENGSSRAKNTTGLTLSKENLVVSLQCSGEKNAIVPKDQKKVCSAAPNAKVADCKGADTDKQVTLKSLLGTSGDIQWEKTIVSTDNKGEVMTLKIKESELPLFDKAFFVGCEEDKAQTRTSQATECKVNVSVKARPSTVGENNVVTCAYGKDSNPRPLEVEMSADNDTLTIDCGTDGSLKPTKYTEEFCVTDNSQLESCTTKKFSEILPTFLPSWWVSDSQNGSAKLTIPESGFPEEQQQFRLGCVPKKTTQSPQANPSVKTEKEEGAQNTDASTSNCSVIVTVKASNFSSLASSIAPTAAVAGGAAALTGFLVGSF",glycan array binding signal (z-score),[1],-0.59
same,glycan array binding signal (z-score),Neu5Ac(a2-6)GalNAc,-0.745
same,glycan array binding signal (z-score),[2],-1.52
same,glycan array binding signal (z-score),[3],-0.656
same,glycan array binding signal (z-score),[4],0.094
same,glycan array binding signal (z-score),Neu5Ac(a2-8)Neu5Ac,-0.128
same,glycan array binding signal (z-score),[5],-0.498
same,glycan array binding signal (z-score),[6],0.871
same,glycan array binding signal (z-score),[7],-0.225
same,glycan array binding signal (z-score),[8],0.26
same,glycan array binding signal (z-score),[9],0.338
same,glycan array binding signal (z-score),[10],-0.85
same,glycan array binding signal (z-score),[11],0.323
same,glycan array binding signal (z-score),Neu5Ac(b2-6)GalNAc,0.117
same,glycan array binding signal (z-score),[12],0.057
same,glycan array binding signal (z-score),[13],-0.312
same,glycan array binding signal (z-score),[14],-0.64
same,glycan array binding signal (z-score),[15],-1.15
same,glycan array binding signal (z-score),[16],-0.377
same,glycan array binding signal (z-score),Neu5Gc(a2-3)Gal(b1-4)Glc,-0.529
same,glycan array binding signal (z-score),[17],0.659
same,glycan array binding signal (z-score),[18],0.103
same,glycan array binding signal (z-score),[19],0.342
same,glycan array binding signal (z-score),Neu5Gc(a2-6)GalNAc,-0.546
same,glycan array binding signal (z-score),[20],0.403

# Two entries picked at random from those above:
binder,measurement,setting,value
"SRS6 (Toxoplasma gondii), Q9NH12 (protein) MARTGSMQQRRGGFQTTARMLMAVCVSGVLLLSSGPSSANKLTEGQQNQNSGPGAATQEGPTIEGAVAKCVLKTTAAENGSSRAKNTTGLTLSKENLVVSLQCSGEKNAIVPKDQKKVCSAAPNAKVADCKGADTDKQVTLKSLLGTSGDIQWEKTIVSTDNKGEVMTLKIKESELPLFDKAFFVGCEEDKAQTRTSQATECKVNVSVKARPSTVGENNVVTCAYGKDSNPRPLEVEMSADNDTLTIDCGTDGSLKPTKYTEEFCVTDNSQLESCTTKKFSEILPTFLPSWWVSDSQNGSAKLTIPESGFPEEQQQFRLGCVPKKTTQSPQANPSVKTEKEEGAQNTDASTSNCSVIVTVKASNFSSLASSIAPTAAVAGGAAALTGFLVGSF",glycan array binding signal (z-score),[15],-1.15
same,glycan array binding signal (z-score),[6],0.871
